The text below walks through data of patent US5448062A (priority 1993, dated 1995).

For data set [1] the following is noted: S/N = 3; aqueous mixtures; DIMP ion trap; membrane 30° C.
The nature of data set [2]: Pneumatically-assisted coaxial membrane/quartz jet separator / ion trap mass spectrometer detection.
Data set [3] is described as follows: Membrane/metal jet separator / single quadrupole mass spectrometer detection.
[4] abbreviates: S/N = 3, single ion monitoring, sample solution 45° C., tip spacing 0.30 mm.

Like-named read-outs stand apart in the source and are kept apart here. Where only a bound is given, the exact number is not on record here.

Consider `ClCC(Cl)Cl` [1,1,2-trichloroethane], for which the Detection limit in data set [1] is reported as 2 ppb.

With `CC(Cl)Cl` [1,1-dichloroethane], the Detection limit in data set [1] is given as 0.5 ppb.

On to `CCC(C)=O` [2-butanone], for which the detection limits entry in data set [2] (polar compounds, ambient temperature) is “less than 100 ppb”.

Regarding `C=COCCCl` [2-chloroethylvinylether], in data set [1], the Detection limit was 2 ppb.

In data set [3] (less volatile, more polar compounds, 45° C.), `CC(=O)O` [acetic acid] registered a Detection limit of 5 ppm.

As to `CC(C)=O` [acetone], in data set [3] (setting [4]), the Detection limit came to 20 ppb.

In the case of `c1ccccc1` [benzene], in data set [2] (aqueous solution), the detection limits is given as at most 30 parts per trillion and the limits of quantitation is on record as at most 100 ppt.

In the case of `CBr` [bromomethane], the Detection limit in data set [1] worked out at 1 ppb.

Regarding `Clc1ccccc1` [chlorobenzene], the Detection limit in data set [3] (setting [4]) was 0.100 ppb. In data set [2] (aqueous solution), this compound gave a detection limits of at most 30 parts per trillion and a limits of quantitation of at most 100 ppt.

Turning to `CCCl` [chloroethane], the Detection limit in data set [1] was 2 ppb.

For the compound `ClC(Cl)(Cl)Cl` [tetrachloromethane], the Detection limit is 2 ppb in data set [1] and 0.200 ppb in data set [3] (setting [4]).

For `Cl/C=C/Cl` [trans-1,2 dichloroethene], the Detection limit in data set [3] (setting [4]) is given as 0.030 ppb. In addition, in data set [2] (aqueous solution), the detection limits is on record as at most 30 parts per trillion and the limits of quantitation is on record as at most 100 ppt.

For the compound `Cl/C=C/Cl` [trans-dichloroethane], the Detection limit in data set [3] (single ion monitoring, sample solution 45° C.) turned out to be 30 ppt.

As for `FC(Cl)(Cl)Cl` [trichlorofluoromethane], the Detection limit in data set [1] was found to be 2 ppb.

`ClC(Cl)Cl` [trichloromethane]: the “ratio of the signal intensities due to chloroform and helium (maximum)” value in data set [3] (250 ppm chloroform, helium 25 mL/min, spacing of 0.5 and 0.4 mm) is 7.0. Further, in data set [3] (250 ppm chloroform, helium 25 mL/min, tip spacings larger than 3 mm), the “ratio of the signal intensities due to chloroform and helium” value came to 0.14. This compound came in with a Detection limit in data set [3] (setting [4]) of 0.300 ppb.
